Data: patent publication US20110269807A1, “NOVEL TREATMENT FOR AGE RELATED MACULAR DEGENERATION AND OCULAR ISCHEMIC DISEASE ASSOCIATED WITH COMPLEMENT ACTIVATION BY TARGETING 5-LIPOXYGENASE” (ALLERGAN, INC., priority 2010, published 2011)
Some results were stated once for a whole list of compounds, not compound by compound.

Test system: ARPE-19 cells
Test: Complement mediated cell death assay on RPE cells in the context of oxidative stress (cell protection assay, NIH clinical collection library screen)
Type: cell-based
Conditions: 1:1000 dilution of library compound; 0.77 mM H2O2, 24% S-58, 6% C1q deficient human serum; average of two independent experiments; cutoff for significant protection
Description: ARPE-19 cells were plated at sub confluence in 96 well culture plates and cultured 24 to 48 hrs. The cells were then treated with 1:1000 dilution of each compound from the NIH clinical collection library overnight. The following day culture media was collected and set aside. The cells were washed and then treated with 0.77 mM H2O2 in hanks buffered saline solution (HBSS) for 90 minutes in the presence of fresh compound from NIH clinical collection library at a 1:1000 dilution. Cells were then washed and primed with a solution of HBSS containing 24% S-58 for 30 minutes. After the priming step cells were washed and then treated with 6% C1q deficient human serum in the original cell culture supernatant collected prior to H2O2 treatment. 90 minutes after addition of the human serum cells were labeled with the membrane impermeant nuclear dye SYTOX® orange and the number of positive cells determined. This count was then used to determine level of cell death. Quantitation and imaging were accomplished by capturing a single field per objective using a 10× objective and then counting the number of positive nuclei using metamorph image analysis software. Data was collected and expressed as % protection relative to wells containing vehicle alone (DMSO).
Data was collected and the level of protection by each compound determined by averaging the results of two independent experiments. FIG. 4 is the distribution of results indexed to compound plate (y-axis) and Protection (x-axis). […] FIG. 5 contains a list of compounds with protective properties. Of the 17 compounds selected, six compounds (Zeranol, Penciclovir, Rifapentine, Rifaximin, calcitrol, 3-[3,5-DIBROMO-4-HYDROXYBENZOYL]-2-ETHYLBENZOFURAN) were deemed to function as anti-oxidants in the assay. Of the remaining 11 compounds, four fall into a single class associated with modulation of the arachidonic acid pathway. This included Zileuton, Zafirlukast, Montelukast, and Loxoprofen. […] The targeting was both direct at 5-lipoxygenase (Zileuton) and indirect at the leukotiene receptor (Zafirlukast, Montelukast).
The observation that inhibition of 5-lipoxygenase is protective against the combined effects of oxidative stress and complement attack in ARPE-19 cells prompted us to test the 5 lipoxygenase activating protein inhibitor MK886 for its ability to protect ARPE-19 cells from oxidative stress and complement attack in vitro. The cell protection assay was carried out essentially as described in Examples 1-4.
In addition to the MK886 inhibitor we also evaluated other know 5-lipoxygenase inhibitors, including 2-TEDC and monocyclin, for their ability to protect ARPE-19 cells against oxidative stress and complement attack, using the cell protection assay described in Examples 1-4.

Structure (SMILES)	% protection relative to wells containing vehicle alone (DMSO)
CO[C@H]1/C=C/O[C@@]2(C)Oc3c(C)c(O)c4c(O)c(c(/C=N/N5CCN(C6CCCC6)CC5)c(O)c4c3C2=O)NC(=O)/C(C)=C\C=C\[C@H](C)[C@H](O)[C@@H](C)[C@@H](O)[C@@H](C)[C@H](OC(C)=O)[C@@H]1C [Rifapentine]	≥ 60%
COc1cc(C(=O)NS(=O)(=O)c2ccccc2C)ccc1Cc1cn(C)c2ccc(NC(=O)OC3CCCC3)cc12 [Zafirlukast]	≥ 60%
CO[C@H]1/C=C/O[C@@]2(C)Oc3c(C)c(O)c4c(O)c(c5c(nc6cc(C)ccn65)c4c3C2=O)NC(=O)/C(C)=C\C=C\[C@H](C)[C@H](O)[C@@H](C)[C@@H](O)[C@@H](C)[C@H](OC(C)=O)[C@@H]1C [Rifaximin]	≥ 60%
CC(C(=O)O)c1ccc(CC2CCCC2=O)cc1 (centres unmarked) [Loxoprofen]	≥ 60%
CCc1oc2ccccc2c1C(=O)c1cc(Br)c(O)c(Br)c1 [3-[3,5-DIBROMO-4-HYDROXYBENZOYL]-2-ETHYLBENZOFURAN]	≥ 60%
CC(C)(O)c1ccccc1CC[C@@H](SCC1(CC(=O)O)CC1)c1cccc(/C=C/c2ccc3ccc(Cl)cc3n2)c1 [Montelukast]	≥ 60%
Nc1nc2c(ncn2CCC(CO)CO)c(=O)[nH]1 [Penciclovir]	≥ 60%
CC(c1cc2ccccc2s1)N(O)C(N)=O (racemic) [Zileuton, ±-[1-(1-benzothien-2-yl)ethyl]-N-hydroxyurea]	≥ 60%
